Our source for the binding values is paper PMC3574160.

The target in this assay is T1, AD-01, peptide derivative of FKBPL.
T1 sequence (peptide): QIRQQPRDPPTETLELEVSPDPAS
Put plainly: SPR; indirect competitive BIACORE Q assay: AD-01 immobilised on CM5 chip; anti-AD-01 antibody (0.01 µg/ml) mixed with AD-01 in solution (0-1 µM) and immunopurified CD44 or recombinant EGFR; a partner of AD-01 in solution raises the antibody's binding to the chip; mIgG isotype eluate and buffer as controls; both purified. Background: In SPR one partner is held on a chip, and binding of the other changes the refractive index at the surface.

Results are given in words; binding and its absence hold for the method and conditions named. Sequences can lack the tags named with a protein.

On to “recombinant human EGFR (from UniProt P00533 25-645) (receptor)”, for which the binding entry is reported as “no binding”.
